Test results: patent publication EP2589383A1 (Max-Planck-Gesellschaft zur Förderung der Wissenschaften …, priority 2011, dated 2013)
At least one compound was matched to its structure with a doubt left.

Tested on: Yeast cells (FKBP deletion strain Δ)
Test: Growth of FKBP-deficient yeast strain expressing human FKBPs on rapamycin medium
Type: cell-based
Conditions: 5 µM rapamycin; expression of human FKBP12; 3 days

CO[C@H]1C[C@@H]2CC[C@@H](C)[C@@](O)(O2)C(=O)C(=O)N2CCCC[C@H]2C(=O)O[C@H]([C@H](C)C[C@@H]2CC[C@@H](O)[C@H](OC)C2)CC(=O)[C@H](C)/C=C(\C)[C@@H](O)[C@@H](OC)C(=O)[C@H](C)C[C@H](C)/C=C/C=C/C=C/1C [rapamycin]
cell growth: reduced cell growth
